Assay results from PubChem BioAssay AID504834 (National Center for Advancing Translational Sciences (NCATS), 2011).
Hit rate of the full screen: of about 320,000 compounds, about 22,000 (6.9%) were called active. This list was built around the results that the source calls inconclusive (neither active nor inactive); the mix of calls is not that of the screen. The call rests on the fitted dose curve; in most records, active means well fitted inhibition curve with a large enough effect; inconclusive means small, poorly fitted or top-dose-only effect, or another doubt; inactive means no such curve, though single readings can be large or run the other way. Potencies of inconclusive entries are doubtful fits and often do not repeat.

Test: Primary qHTS for delayed death inhibitors of the malarial parasite plastid, 96 hour incubation
Details: P. falciparum luciferase reporter growth; series mostly up to 28.7 µM
Summary of the method: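 Plates of compound plus infected erythrocytes (2% hematocrit, 0.05% parasitemia final) incubate 96 hours, 37 C, 5% CO2. Detection reagent added; reduced luminescence from the parasites' luciferase reporter flags inhibition.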
Potency means the concentration at half of the fitted maximal effect.

Compound	Potency
CN(Cc1ccccc1)C(=O)COC(=O)CCN1C(=O)C2CC=CCC2C1=O (stereo unspecified)	inactive
CN1C(=O)C2(C(C#N)=C(N)N(c3ccc(Cl)cc3)C3=C2C(=O)CC(C)(C)C3)c2ccccc21 (stereo unspecified)	active: 13.1 µM
N#C/C(=N\Nc1ccccc1)C(=N)N1CCCCCC1	inactive
Cc1ccc2cc(C#N)c(SCC(=O)N3CCCc4ccccc43)nc2c1C	inconclusive: 10.4 µM [inhibitor, partial curve, poor fit]
CC(C)c1nc2cc(C(=O)N3CCNC(=O)C3c3ccc(F)cc3)ccc2o1 (stereo unspecified)	inconclusive: 18.5 µM [inhibitor, single point]
Cc1onc(-c2c(Cl)cccc2Cl)c1NC(=O)NC1CCSC1 (stereo unspecified)	inactive
CCCn1nnnc1NCc1cccn1C	inconclusive: 11.7 µM [inhibitor, single point]
O=C(Nc1ccncc1)C1CCC(CNS(=O)(=O)c2cccc3nsnc23)CC1 (stereo unspecified)	inconclusive: 11.7 µM [inhibitor, single point]
O=C(NCc1ccncc1)C1CCN(S(=O)(=O)c2ccccc2)CC1	inconclusive: 16.5 µM [inhibitor, single point]
CC1(C)CC(=O)C(C=Nc2ccc(O)c(N=CC3=C(O)CC(C)(C)CC3=O)c2)=C(O)C1	inconclusive: 11.7 µM [inhibitor, single point]
O=C(NCc1ccccc1Cl)C1CCN(S(=O)(=O)N2CCCCCC2)CC1	inconclusive: 18.5 µM [inhibitor, single point]
O=C(/C=C/c1ccc(Br)cc1)NC(=S)N1C[C@H]2C[C@H](C1)c1cccc(=O)n1C2	inconclusive: 14.7 µM [inhibitor, single point]
Cc1[nH]c2ccc(C(=O)OC(C)C(=O)N(C)C3CCCCC3)cc2c1C (stereo unspecified)	inconclusive: 18.5 µM [inhibitor, single point]
Cc1cccc(N2CC(C(=O)NCC3COc4ccccc4O3)CC2=O)c1C (stereo unspecified)	inconclusive: 18.5 µM [inhibitor, single point]
COc1cc(/C=C/C2=NNC(=O)CC2)cc(OC)c1OC	inactive
COc1ccc(-c2c(S(=O)(=O)c3ccccc3)cnn2-c2ccccc2)cc1	active: 6.57 µM
Cc1ccc(N2CCN(C(=S)Nc3ccccc3)CC2)cc1	inactive
O=C1Nc2ccccc2CCc2ccccc21	inconclusive: 0.928 µM [inhibitor, partial curve, poor fit]
Cc1nn(CC(N)=O)c(=O)c2ccccc12	active: 2.08 µM
CCOC(=O)C1CCCN(C(=O)Cn2ncc3c([nH]c4ccc(C)cc43)c2=O)C1 (stereo unspecified)	inactive
O=C(Nc1ccc(F)cc1)c1ccccc1F	inactive
COCc1nnc(NC(=O)c2ccc(S(=O)(=O)N(C)Cc3ccccc3)cc2)o1	inconclusive: 9.28 µM [inhibitor, single point]
CC(C)(C)c1cc(NC(=O)COc2ccc(Br)cc2)n(-c2ccccc2)n1	inconclusive: 9.28 µM [inhibitor, partial curve, poor fit]
O=C(CN1C2CCCC1CC(NC(=O)C1CCCCC1)C2)Nc1ccccc1C(F)(F)F (stereo unspecified)	inactive

2 compounds picked at random from the list so far:
Compound	Potency
O=C(CN1C2CCCC1CC(NC(=O)C1CCCCC1)C2)Nc1ccccc1C(F)(F)F (stereo unspecified)	inactive
CCCn1nnnc1NCc1cccn1C	inconclusive: 11.7 µM [inhibitor, single point]

Additional entries follow:

Compound	Potency
Cc1cccc(C)c1OCC(=O)NCc1nnc(SCC(=O)NC2CCCCC2C)n1C (stereo unspecified)	inconclusive: 18.5 µM [inhibitor, single point]
Oc1cccc(C(Nc2nccs2)c2ccc3cccnc3c2O)c1 (stereo unspecified)	inconclusive: 0.928 µM [inhibitor, full curve]
NC(=O)C(c1ccccc1)(c1ccccc1)[C@@H]1CCN(CCc2ccc3c(c2)CCO3)C1	inconclusive: 15.1 µM [inhibitor, single point]
COc1ccc(-c2nc(CS(=O)CC(=O)NCCC3=CCCCC3)c(C)o2)cc1 (stereo unspecified)	inconclusive: 3.29 µM [inhibitor, partial curve]
O=C(CN1CCN(Cc2cccc3ccccc23)CC1)NCCc1ccccc1	inconclusive: 10.4 µM [inhibitor, single point]
CC1CCCN(CCCNC(=O)c2ccc3c(c2)N(Cc2ccc(F)cc2)C(=O)c2ccccc2S3=O)C1 (stereo unspecified)	active: 11.7 µM
CCOC(=O)NC(=O)CSc1nnc(C)s1	inactive
C[N+]1(C)CCCCC1COC(=O)C(O)(c1ccccc1)c1ccccc1 (stereo unspecified)	inconclusive: 15.1 µM [inhibitor, partial curve, poor fit]
CCOC(=O)c1cnc2c(OC)cccc2c1Nc1ccc2c(c1)OCCO2	inconclusive: 3.7 µM [inhibitor, full curve, poor fit]
CCOc1ccc(CNc2ncc(-c3ccccc3)n2C)cc1	inconclusive: 1.04 µM [inhibitor, partial curve, poor fit]
CSc1nc2nccc(-c3ccc4c(c3)OCO4)n2n1	inconclusive: 1.65 µM [inhibitor, partial curve, poor fit]
CCCN1CC(=O)N2C(c3cccc(OC)c3OC)c3[nH]c4ccccc4c3C[C@H]2C1=O (stereo partly specified)	active: 4.15 µM
CCN(CC)C(=O)c1ccc(S(=O)(=O)Cc2ccc(C)cc2)c([N+](=O)[O-])c1	inactive
NC(Cc1ccccc1)C(=O)N1CCCCC1 (stereo unspecified)	inactive
COCCn1c(SCC(=O)Nc2nnc(C)s2)nnc1-c1cc2ccccc2cc1O	inconclusive: 10.4 µM [inhibitor, single point]
COC(=O)CC1C(=O)NCCN1C(=S)Nc1ccccc1Cl (stereo unspecified)	inconclusive: 10.4 µM [inhibitor, partial curve]
CC(=O)Nc1ccc(SC[C@H](Cc2ccccc2)N2CCN(CC(C)C)CCC2=O)cc1	active: 4.65 µM
COC(=O)c1cc(NS(=O)(=O)c2ccc(N3CCOCC3)c([N+](=O)[O-])c2)cc(C(=O)OC)c1	inconclusive: 18.5 µM [inhibitor, single point]
COc1cccc(CN2CC(C(=O)N3CCCO3)CCC2=O)c1 (stereo unspecified)	inactive
Fc1ccc(C2CC(c3cccs3)=NN2C(=S)Nc2ccccc2)cc1 (stereo unspecified)	inconclusive: 13.1 µM [inhibitor, single point]
CCOc1ccc2c(c1)[nH]c(=S)n2C	inconclusive: 18.5 µM [inhibitor, single point]
Cc1ccc(NCc2nnc(SCC(=O)Nc3ncc(C)s3)n2Cc2ccco2)c(C)c1	inconclusive: 3.29 µM [inhibitor, full curve]
CCN(CC(=O)Nc1c(F)cccc1F)C(=O)CCc1nc2sc3c(c2c(=O)[nH]1)CCCC3	inconclusive: 6.57 µM [inhibitor, partial curve]
CN1C(=O)C(C)(C)c2cc(S(=O)(=O)NCC3CCC(C(=O)NCc4ccc(F)cc4)CC3)ccc21 (stereo unspecified)	inconclusive: 14.7 µM [inhibitor, single point]

Look-ups from the entries so far:
Potency with `CCOc1ccc(CNc2ncc(-c3ccccc3)n2C)cc1` reads inconclusive: 1.04 µM [inhibitor, partial curve, poor fit]
Potency with `CCOC(=O)c1cnc2c(OC)cccc2c1Nc1ccc2c(c1)OCCO2` reads inconclusive: 3.7 µM [inhibitor, full curve, poor fit]

Additional results

Compound	Potency
Cc1[nH]n(-c2ccccc2)c(=O)c1/C=N/NC(=O)c1cccc([N+](=O)[O-])c1	inconclusive: 2.08 µM [inhibitor, single point]
CC(=O)NC(Cc1ccc(F)c(F)c1)C(=O)NC1CCN(c2c(Cc3ccccc3)c(C)nc3ncnn23)CC1 (stereo unspecified)	inactive
COc1cc(C(C#N)N2CCC(c3ccccc3)=N2)ccc1O (stereo unspecified)	inactive
O=C(Cn1c2ccccc2c(=O)c2ccccc21)Nc1ccccc1F	inconclusive: 10.4 µM [inhibitor, partial curve, poor fit]
CC(=O)OC1c2ccccc2C(=O)N1Cc1ccccc1Cl (stereo unspecified)	inactive
Cc1nc2ccc(NS(=O)(=O)c3ccc(Br)cc3)cc2s1	inconclusive: 18.5 µM [inhibitor, single point]
Clc1ccc2c(c1)nc1n2CCCC1	inactive
O=C(NCCn1cc(SCc2ccccc2)c2ccccc21)c1ccccc1F	inconclusive: 10.4 µM [inhibitor, single point]
CCOc1cc(NC(=O)C(C)C)c(OCC)cc1NC(=O)Nc1ccccc1	active: 11.7 µM
O=C1NC(NS(=O)(=O)c2ccccc2)(C(F)(F)F)C(=O)N1c1cccc(Cl)c1 (stereo unspecified)	inactive
Cc1cc(Cl)ccc1C(=O)C1CCCN(C(=O)c2cccc(N3CCCC3=O)c2)C1 (stereo unspecified)	inactive
Cc1oc(/C=N/NC(=O)CN(c2ccccc2Cl)S(C)(=O)=O)cc1Br	inactive
COc1cccc(-c2nc(=S)c3c(n2Cc2ccco2)CCCC3)c1	inactive
Cc1ccc(N(C)S(=O)(=O)c2ccc(-c3ccc(=O)[nH]n3)s2)cc1C	inactive
N#Cc1c(C(F)(F)F)cc(-c2cccs2)nc1SCc1cccnc1	inconclusive: 13.1 µM [inhibitor, single point]
NC(=O)CCn1nc(-c2ccc(Cl)cc2)c2ccccc2c1=O	inconclusive: 10.4 µM [inhibitor, single point]
N#Cc1c(Nc2ccccc2)sc(C(=O)C2CC2)c1N	inactive
CCOc1ccccc1N1CCN(S(=O)(=O)c2ccc(F)c(F)c2)CC1	inconclusive: 13.1 µM [inhibitor, partial curve]
CN1CCc2c(n(CC(O)CN(CCO)CCO)c3ccccc23)C1=O (stereo unspecified)	inconclusive: 0.37 µM [inhibitor, full curve]
Cc1nc(N2CCN(Cc3ccc4c(c3)OCO4)CC2)c2cc(-c3ccccc3)sc2n1	inconclusive: 18.5 µM [inhibitor, single point]
Cc1ccc(-n2ncc3c2CC(C)(C)CC3NC(=O)CCc2cccnc2)cc1 (stereo unspecified)	active: 11.7 µM
O=C(CCC(=O)N/N=C/c1c[nH]c2ccccc12)NCc1ccccc1	inconclusive: 18.5 µM [inhibitor, single point]
O=C(Nc1ccc(F)cc1F)c1sccc1SCc1cccc(C(F)(F)F)c1	inconclusive: 0.465 µM [inhibitor, full curve, poor fit]
